± gives the half width of the 95% confidence interval. The two proteases of the assay disagree for many of these sequences.
Legend:
[1] = folding stability dG unfold (combined trypsin and chymotrypsin); higher = more stable
Outline: (§1)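 Mini-proteins designed to be under 80 residues and free of cysteine were carried in a PA-tagged cDNA display construct and digested with trypsin and with chymotrypsin. Each protease was applied at 11 threefold-diluted concentrations, alongside a no-protease condition, before sequencing. K50 came from Bayesian fitting of the sequencing counts, and unfolding free energy was obtained by comparing it with a sequence-predicted unfolded-state K50 and a shared folded-state K50, for each protease separately or for both together. Designs were retained only if their AlphaFold2 dimer inter-PAE exceeded 15.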

[2] = folding stability dG unfold from chymotrypsin proteolysis; higher = more stable
Outline: as §1

[3] = folding stability dG unfold from trypsin proteolysis; higher = more stable
Outline: as §1

Row | Sequence | folding stability dG unfold [1] [kcal/mol] | folding stability dG unfold [2] [kcal/mol] | folding stability dG unfold [3] [kcal/mol]
1 | SAGGSAGGSAGSEVEEKTIKIEVDGKIYPAKVRFVKDENGKVWVYFDGKWFSAEDLEKLLSAGGSAGGSAGG [r11_690_TrROS_Hall] | 3.53 ± 0.16 | 4.08 ± 0.085 | 1.44 ± 0.047
2 | SAGGSAGGSAGGSMKIEIVTNDPKKAEEIKEKLEKEGYPKKKNPINIEVKEISEEELLKSAGGSAGGSAGGS [r4_281_JUSTAS] | 0.533 ± 0.16 | 0.628 ± 0.053 | -0.113 ± 0.085
3 | SAGMTITVESLEDALALAEELAEKYPGLKVTVEVRLSPDGKTVEVRVTIEPAPPVKVVDPETGEEVEEESAG [r5_870_TrROS_Hall] | 3.43 ± 0.3 | 2.3 ± 0.12 | 3.72 ± 0.36
4 | SAMLRVTVTYERSPTSPDYLVTVRVELPDGTLVAEIPILVPASDPDLTPERVREIARPIVERLAAEGLLSAG [r14_120_TrMRF] | 3.46 ± 0.056 | 3.833 ± 0.021 | 1.01 ± 0.041
5 | SGVRTALGRARIERLPDGSVRLELDLLTEPPSGRVVRRRLRFVFYPGSGRVGVEPETEVLPVPPGAPGLGSA [r9_709_TrMRF] | 3.35 ± 0.1 | 3.99 ± 0.071 | 1.03 ± 0.077
6 | SAGGSAGGSAGGGMPSYVTKTTTTTVKITNTTTGGNSTTTTTSTVTVTTTTLLPPGLLASAGGSAGGSAGGS [r10_300_JUSTAS] | 0.835 ± 0.074 | 1.2 ± 0.028 | -0.147 ± 0.052
7 | SAMYKVTVTFYDPNNDTPIATREFTIEEEEIEEFKEKLKKELGIDPNQKLVITVTPVPVKGNETGKKLESAG [r14_297_JUSTAS] | 3.37 ± 0.23 | 3.95 ± 0.085 | 1.7 ± 0.08
8 | HIEVTPNGSIYIMFPADDLKDLPPGDPLELKLKIYIPGGYKIKVTWEVVPDGWIMIRIKVEPIPVSPEQNKS [r1_394_TrROS] | 5.33 ± 0.34 | 5.65 ± 0.18 | 2.34 ± 0.11
9 | SAGGSKAEKIAEFEVDGKKITLYKNEDGSYVIEVEIDGKKVTITVKKDMSLEEIENLLKELKEKAKSAGGSA [r2_243_TrROS_Hall] | 3.93 ± 0.37 | 4.39 ± 0.22 | 1.6 ± 0.1
10 | SAMDLKDLNIEKIEEIVKAILEKLGIPPENVEVKVEIKKGPDNSYYIVVEVTVKLGEKTYKFKFLIKGSSAG [r14_703_TrMRF] | 4.5 ± 0.38 | 4.94 ± 0.21 | 2.6 ± 0.14
11 | SAGGSAGGSAGGMSPGSSSTTVTTTTSPNGTVVTTTTTTTLDPNSNTTSSTTTTTTTTTSAGGSAGGSAGGS [r10_1164_JUSTAS] | 2.42 ± 0.25 | 1.74 ± 0.18 | 3.15 ± 0.25
12 | SAGGSAGGSAGGSMIIRIETKDGKIIEIEIKEDEDKTPEEIAKELAKKYNIKKIEIFEPSAGGSAGGSAGGS [r4_116_TrROS_Hall] | 3.44 ± 0.096 | 3.57 ± 0.062 | 3.27 ± 0.12
13 | SAGGSAGGSAGGSAPPKVEIEVTVLVKDEDGRLYVFKAKATFDLETNELTVEVEVYELPSAGGSAGGSAGGS [r4_445_TrROS_Hall] | 4.66 ± 0.35 | 4.79 ± 0.13 | 3.22 ± 0.39
14 | SAGGSAGGSAPDLRLTSESLFLLPDGYLLVVRRTFDPRGEDDVEVEVRVFPLGPLRPPPEARSAGGSAGGSA [r18_409_TrMRF] | 2.84 ± 0.15 | 3.14 ± 0.11 | 0.622 ± 0.4
15 | SAGGSAGGSAGGVEIVIMFPRGMPPEQFAKMIAKWLRRQGLPPNVKVDIKIIPIDPDDMSAGGSAGGSAGGS [r10_746_TrROS] | 3.15 ± 0.18 | 3.35 ± 0.066 | 2.82 ± 0.051
16 | SAGKEKKPVKTVTITLTLTGPDGSTYTLTLTLTVKPGQTVTITFPNGFKLTITVNEDGSITITLEKLPDSAG [r5_168_TrROS_Hall] | 5.05 ± 0.45 | 5.65 ± 0.25 | 2.69 ± 0.16
17 | SAGGSAGGSAGAGKVVFEVDIKTFLGKRKDGSDAPKTIIEIKVFDIAPLDPNDPVLKALISAGGSAGGSAGG [r11_236_TrMRF] | 3.26 ± 0.22 | 3.54 ± 0.15 | 2.28 ± 0.11

Complete entries from above:
SAGGSAGGSAGGSAPPKVEIEVTVLVKDEDGRLYVFKAKATFDLETNELTVEVEVYELPSAGGSAGGSAGGS [r4_445_TrROS_Hall] is entered as folding stability dG unfold [1] [kcal/mol]: 4.66 ± 0.35; folding stability dG unfold [2] [kcal/mol]: 4.79 ± 0.13; folding stability dG unfold [3] [kcal/mol]: 3.22 ± 0.39
SAGKEKKPVKTVTITLTLTGPDGSTYTLTLTLTVKPGQTVTITFPNGFKLTITVNEDGSITITLEKLPDSAG [r5_168_TrROS_Hall] is entered as folding stability dG unfold [1] [kcal/mol]: 5.05 ± 0.45; folding stability dG unfold [2] [kcal/mol]: 5.65 ± 0.25; folding stability dG unfold [3] [kcal/mol]: 2.69 ± 0.16

Reference: the supplement of paper PMC12764529
